Measurements taken from patent US10996205B2, “Stress biomarkers and related non-invasive detection methods” (ARIZONA BOARD OF REGENTS ON BEHALF OF THE UNIVERSITY OF …, priority 2015, dated 2021).

Legend:
[1] = Cortisol levels in human eccrine sweat collected at different times of the day (HPLC-MS/MS); assay type: in vivo
[2] = ELISA, sweat collected soon after intense exercise, 7:40 am to 22:00 pm; cited from earlier work

C[C@]12CCC(=O)C=C1CC[C@@H]1[C@@H]2[C@@H](O)C[C@@]2(C)[C@H]1CC[C@]2(O)C(=O)CO [cortisol, 4-PREGNEN-11β, 17, 21-TRIOL-3, 20-DIONE]
Average Concentration in human eccrine sweat ([1]; collection time 1-1:30 pm): 1.68 ± 0.49 ng/mL | Average Concentration in human eccrine sweat ([1]; collection time 4-4:30 pm): 0.50 ± 0.20 ng/mL | average sweat cortisol [2]: 74.62 ± 41.51 ng/mL | sweat cortisol concentration range [2]: 8.16 to 141.7 ng/mL
